# Data as given in PubChem BioAssay AID1508588 (Peter MacCallum Cancer Centre, 2020)
# Test: 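Which gene losses make BRAF-mutant melanoma cells more responsive to vemurafenib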 (primary screen)
# Cell system: human WM266.4 melanoma cells (BRAF V600 mutant)
# Knock-down reagent: siRNA pool against human genes, 40 nM
# Timing: 96 h from transfection to read-out
# Challenge: vemurafenib 300 nM (about IC25), added 48 h after transfection, for 48 h; comparison arm got DMSO vehicle only
# Measured: 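Ratios to non-targeting siRNA for cell gain, counted as DAPI nuclei after minus before drug and averaged over two replicates, and for absorbance-read medium lactate per cell; both binned into fold-change classes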
# Scale: cell gain with vemurafenib: higher = more cell gain than with non-targeting siRNA; lactate per cell with vemurafenib: higher = more lactate made per cell
# Active means: 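Enhancement is called by pairing each knock-down's vehicle-arm and drug-arm fold-change classes for viability or glycolysis; which class combinations qualify is not given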
# Meaning of the calls: active = enhances vemurafenib effect; inactive = no enhancement seen
# This is one part, drawn at random, of about 18,000 reagents tested. 790 of them (4.4%) count as active. 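Calls rest on a combination of fold-change classes in drug and vehicle arms, not all shown here.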 Reagent sequences are not shown.
gene symbol,cell gain with vemurafenib,lactate per cell with vemurafenib,call
MRFAP1L1 (GeneID 114932),0.5,0.72,inactive
NRG4 (GeneID 145957),0.42,1.14,inactive
APOL1 (GeneID 8542),0.45,0.92,inactive
RANBP6 (GeneID 26953),0.55,0.6,inactive
FOXR1 (GeneID 283150),0.59,0.98,inactive
CLPSL2 (GeneID 389383),0.44,1.35,inactive
OR7G2 (GeneID 390882),0.47,1.56,inactive
FBXL12 (GeneID 54850),0.29,1.12,inactive
HAUS1 (GeneID 115106),0.44,0.97,inactive
LGALS4 (GeneID 3960),1.05,0.92,inactive
KRTAP4-1 (GeneID 85285),0.26,1.05,inactive
DYM (GeneID 54808),0.62,0.48,active
NKAP (GeneID 79576),0.49,0.54,inactive
FZD5 (GeneID 7855),1.07,1.24,inactive
RPF1 (GeneID 80135),0.32,0.75,inactive
UFM1 (GeneID 51569),0.82,0.75,inactive
KIF1C (GeneID 10749),0.31,1.05,inactive
LRCH4 (GeneID 4034),0.62,1.68,inactive
SPACA4 (GeneID 171169),0.31,1.9,inactive
CHD6 (GeneID 84181),0.96,1.09,inactive
ARK2C (GeneID 494470),0.34,0.76,inactive
GPR45 (GeneID 11250),0.82,0.94,inactive
FAM184A (GeneID 79632),1.02,0.61,inactive
LGR5 (GeneID 8549),1.12,0.42,inactive
TRIM14 (GeneID 9830),0.93,0.94,inactive
RPS24 (GeneID 6229),-0.15,1.56,inactive
PIF1 (GeneID 80119),0.01,2.23,inactive
CADM2 (GeneID 253559),0.29,1.52,inactive
TNRC18 (GeneID 84629),0.95,1.12,inactive
APH1B (GeneID 83464),-0.08,1.34,inactive
PHYKPL (GeneID 85007),0.24,1.29,inactive
EVI5 (GeneID 7813),0.83,0.46,active
PNMA2 (GeneID 10687),0.96,0.42,inactive
SLC6A18 (GeneID 348932),0.41,1.44,inactive
AMMECR1L (GeneID 83607),0.86,0.42,inactive
DYDC1 (GeneID 143241),0.82,0.86,inactive
TOMM22 (GeneID 56993),0.7,0.94,inactive
TM2D3 (GeneID 80213),0.71,0.84,inactive
ZWILCH (GeneID 55055),0.98,0.46,inactive
DSG4 (GeneID 147409),0.17,0.66,inactive
MICU1 (GeneID 10367),0.11,1.03,inactive
TAFA3 (GeneID 284467),1.19,0.4,inactive
CIDEA (GeneID 1149),0.66,1.2,inactive
CENPI (GeneID 2491),0.43,0.73,inactive
LCMT2 (GeneID 9836),0.74,0.28,inactive
PRNT (GeneID 149830),0.12,1.77,inactive
RSPH9 (GeneID 221421),0.54,1.37,inactive
MS4A15 (GeneID 219995),0.78,0.97,inactive
COQ4 (GeneID 51117),0.67,0.89,inactive
TTC23L (GeneID 153657),1.01,0.39,inactive
ORC1 (GeneID 4998),0.4,0.98,inactive
TAF15 (GeneID 8148),0.75,0.1,inactive
SLC13A2 (GeneID 9058),0.81,1.23,inactive
SLC35F4 (GeneID 341880),0.8,1.1,inactive
CARMIL3 (GeneID 90668),0.75,1.37,inactive
RNF144A (GeneID 9781),0.86,1.15,inactive
MCPH1 (GeneID 79648),0.6,1.72,inactive
DUSP7 (GeneID 1849),0.86,0.82,inactive
ANKRD54 (GeneID 129138),0.64,1.31,inactive
FAM135B (GeneID 51059),0.47,1.86,inactive
H1-5 (GeneID 3009),0.31,0.74,inactive
APOC4 (GeneID 346),0.62,1.58,inactive
HSPD1 (GeneID 3329),0.84,0.7,inactive
ATL3 (GeneID 25923),0.45,0.15,active
LRIT3 (GeneID 345193),0.81,0.96,inactive
WNK2 (GeneID 65268),0.73,0.52,inactive
PIK3R6 (GeneID 146850),0.8,0.85,inactive
FKBP10 (GeneID 60681),0.66,0.55,inactive
OR2W3 (GeneID 343171),0.53,1.06,inactive
THBS2 (GeneID 7058),0.61,0.06,inactive
DDX52 (GeneID 11056),0.7,0.7,inactive
AFF2 (GeneID 2334),0.85,1.1,inactive
TMEM229B (GeneID 161145),0.6,1.21,inactive
TRAM1L1 (GeneID 133022),0.69,0.94,inactive
CFAP184 (GeneID 257236),0.4,0.82,inactive
MFSD6 (GeneID 54842),1.14,1.42,inactive
C1orf74 (GeneID 148304),0.44,1.12,inactive
ACOXL (GeneID 55289),0.3,0.68,active
FABP5 (GeneID 2171),0.7,0.16,inactive
TP53I11 (GeneID 9537),0.75,0.54,inactive
RHEX (GeneID 440712),0.3,0.79,inactive
LIMS2 (GeneID 55679),-0.03,2.84,inactive
CCT7 (GeneID 10574),0.2,1.03,inactive
RUNX1 (GeneID 861),0.37,0.82,inactive
CLEC9A (GeneID 283420),0.3,1.55,inactive
CYTH1 (GeneID 9267),0.77,1.36,inactive
ZNF619 (GeneID 285267),0.94,0.66,inactive
ZNF197 (GeneID 10168),0.32,0.87,inactive
OR1G1 (GeneID 8390),0.29,0.97,inactive
CFAP157 (GeneID 286207),0.83,1.42,inactive
CCL21 (GeneID 6366),0.52,0.35,inactive
SLC25A27 (GeneID 9481),0.34,0.84,inactive
NAV1 (GeneID 89796),0.2,0.6,inactive
PRICKLE3 (GeneID 4007),1.03,0.94,inactive
MFN1 (GeneID 55669),0.78,0.88,inactive
STUM (GeneID 375057),0.06,1.89,inactive
TMEM150A (GeneID 129303),0.56,0.96,inactive
ACTN2 (GeneID 88),0.56,0.77,inactive
PEX5L (GeneID 51555),0.42,0.76,inactive
AVPR1A (GeneID 552),0.55,0.61,inactive
HAMP (GeneID 57817),0.78,1.98,inactive
CETN1 (GeneID 1068),0.46,1.03,inactive
OMP (GeneID 4975),0.25,3.16,inactive
RGPD1 (GeneID 400966),0.92,0.8,inactive
BPY2B (GeneID 442867),1.01,0.78,inactive
SCO1 (GeneID 6341),0.43,2.54,inactive
MCMDC2 (GeneID 157777),0.56,1.49,inactive

Hits (from the list above):
gene symbol,cell gain with vemurafenib,lactate per cell with vemurafenib,call
DYM (GeneID 54808),0.62,0.48,active
EVI5 (GeneID 7813),0.83,0.46,active
ATL3 (GeneID 25923),0.45,0.15,active
ACOXL (GeneID 55289),0.3,0.68,active
